Values from PubChem BioAssay AID1671195 (Yale University, 2021)

Aim: 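Genes whose knockdown alters LDL uptake in liver cancer cells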 (primary screen)
Cells: human Huh7 hepatoma cells
Reagent: siRNA pool against human genes, 18 nM
Timing: about 2 to 2.5 days of knockdown, then 8 h LDL uptake
Challenge: DiI-labelled LDL at 30 µg/ml for 8 h, in lipoprotein-deficient serum medium
Measurement: 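Fluorescent LDL signal imaged in cells, scaled to the plate median, robust z-score for each replicate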
Reading the numbers: robust z-score: higher = more LDL uptake after knockdown
Active means: 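Active when two or more replicates show a robust z-score above 2 or below -2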
This is an unselected part of about 22,000 reagents tested. About 1,510 of all reagents (6.9%) count as active. 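Active includes knockdowns raising or lowering LDL uptake; positive z-scores mean more uptake, negative mean less.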 Unmarked entries are inactive. No sequences are given here.

| gene symbol | robust z-score, replicate 1 | robust z-score, replicate 2 | robust z-score, replicate 3 |
| --- | --- | --- | --- |
| ITGA2 | 2.02 | -1.53 | 0.632 |
| VSIG8 | 0.67 | 0.7 | 0.951 |
| CADM1 | -1.91 | -0.809 | -0.232 |
| KIR3DL1 | 1.8 (active) | 2.68 | 3.68 |
| LOC389100 (retired record) | 0.311 | -0.291 | -0.476 |
| LOC440972 (retired record) | -1.06 | -1.33 | -1.34 |
| NYX | -0.476 | -0.902 | -0.618 |
| ELAVL3 | 1.54 | 1.58 | 2.16 |
| ICAM1 | -0.426 | -0.563 | 0.0761 |
| PDGFRL | -0.641 | -0.0753 | 0.0683 |
| SACK1F | 0.475 | -0.0642 | -0.0971 |
| NDUFB5 | -1.05 | -1.79 | -1.69 |
| LSAMP | -0.767 | -1.35 | -0.837 |
| C8orf76 | -0.607 | -0.498 | -1.03 |
| PIERCE2 | -0.206 | -0.0401 | 1.04 |
| GAB3 | 1.22 | -0.367 | 1.01 |
| PDLIM4 | 0.0716 | 1.53 | 0.275 |
| HTR7 | -0.787 | -0.721 | -0.979 |
| SNAI2 | -1.26 | -0.525 | -0.916 |
| SLC40A1 | -0.529 | 0.0815 | -1.51 |
| CSTA | -0.0156 | -0.0974 | -0.591 |
| ZNF621 | -1.59 | -1.48 | -1.04 |
| H2AX | -0.0164 | -0.181 | -0.149 |
| EPB41 | -1.3 | -0.562 | -1.39 |
| GPX1 | -1.16 | -1.39 | -0.89 |
| STAT2 | -0.894 | -0.344 | -0.633 |
| UBXN2B | 0.492 | 0.554 | 0.566 |
| C6orf118 | -1.75 (active) | -2.42 | -2.24 |
| ATRNL1 | 1.51 | 1.94 | 1.69 |
| TSSK1B | -0.774 | -1.79 | -1.8 |
| GPBAR1 | 0.496 (active) | 4.36 | 3.16 |
| IFRD2 | 0.317 | 0.432 | -1.26 |
| SNRPC | -0.321 | 1.25 | 0.163 |
| NDRG3 | -0.476 | -1.25 | -0.912 |
| RYR1 | 1.95 | 1.32 | 1.84 |
| SEMA3D | 0.164 | 2.51 | 1.27 |
| CBX2 | -1.99 | -0.924 | -1.37 |
| GGT1 | 0.477 | -0.35 | 0.603 |
| APPBP2 | 1.1 | 0.854 | 0.527 |
| RABIF | -0.532 | 0.596 | 0.73 |
| AGTR2 | 3.77 (active) | 2.15 | 2.66 |
| MSH3 | 2.01 (active) | 2.17 | 1.99 |
| ADAMTS3 | -0.257 | -0.106 | -0.207 |
| IGLJCOR18 | -0.559 | -0.178 | -0.365 |
| DDOST | 0.502 | -0.551 | 0.0699 |
| EFNA1 | -0.58 | 0.22 | 0.198 |
| EIF3KP1 | -1.85 | -0.791 | -0.834 |
| ZMYND11 | -0.729 | -0.139 | -0.33 |
| RAB11FIP3 | -0.0385 | -0.729 | -1.45 |
| TMUB1 | 2.37 (active) | 2.83 | 2.56 |
| SULT4A1 | 1.24 | 0.989 | 0.456 |
| TCOF1 | -0.367 | -0.0102 | -0.69 |
| CYP2S1 | -0.508 | -0.205 | -0.238 |
| CPNE3 | 0.466 | 0.564 | 2.95 |
| ASF1A | 2.57 (active) | 3.07 | 1.62 |
| PLOD1 | 0.889 | 0.883 | 0.853 |
| PHTF1 | 0.532 | -0.408 | 1.12 |
| KIF5A | 0.271 | -0.53 | -0.842 |
| MAN2A1 | 0.148 | 0.679 | 0.0927 |
| LOC399933 (retired record) | -0.718 | -1.05 | -1.39 |
| CDRT4 | -0.935 | -1.04 | -0.989 |
| ZNF767P | 1.63 | 1.08 | 0.749 |
| RAET1L | -0.86 | -1.75 | -0.984 |
| TBX21 | 0.558 | 1.2 | 1.32 |
| LCN2 | 2.45 (active) | 3.24 | 2.59 |
| KRT33B | 2.35 | -0.0103 | 1.64 |
| NBPF5P | 0.78 | 0.759 | 1.32 |
| LINC02843 | 0.435 | -0.199 | -0.112 |
| CMTM8 | 1.25 | 0.375 | 1.16 |
| NRXN1 | -0.0684 | 0.23 | 1.71 |
| POU2F3 | -1.34 | -1.72 | -1.28 |
| PDHX | -1.19 | -1.67 | -0.994 |
| KLHL5 | 1.33 | -0.731 | 0.127 |
| LOC389275 (retired record) | -0.696 | -0.427 | -0.54 |
| LOC388943 (retired record) | 0.0376 | -0.684 | -0.401 |
| GRWD1 | -0.834 | -1.16 | -1.3 |
| HYCC1 | 3.49 (active) | 4.75 | 4.03 |
| KRTAP3-2 | 0.877 | 1.69 | 1.61 |
| NFYC | -0.853 | -1.58 | -0.602 |
| IFT22 | -2.24 (active) | -2.47 | -2.55 |
| AZU1 | -1.63 | -0.803 | -0.914 |
| COMMD8 | 1.97 (active) | 3.62 | 2.78 |
| DGAT2L6 | -0.322 | -0.526 | -0.502 |
| DUSP9 | -0.616 | -0.494 | -1.16 |
| DLST | -1.67 | -0.00347 | -1.56 |
| MRAP | 3.26 | 1.22 | 1.54 |
| ZNF99 | 0.0562 | -1.82 | -1.35 |
